PubChem BioAssay AID743454, Peter MacCallum Cancer Centre – 2014

Screen: 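Knock-downs lowering viability or raising caspase 3/7 activity in vorinostat-treated resistant cells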 (primary screen)
Cell system: human HCT116-VR colon cancer cells, selected for vorinostat resistance
Reagent: siRNA pool against human genes, 40 nM siRNA pool
Timing: vorinostat for 24 h, read-out about 72 h after transfection
Challenge: vorinostat at 2.5 µM final
Detection: 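Two measures, CellTiter-Fluor viability and luminescent caspase 3/7 activity, each as fold change against same-plate mock wells, mean of duplicates, then screen-wide robust z-score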
Direction: viability robust z-score: higher = more viable cells than screen typical; caspase robust z-score: higher = more caspase 3/7 activity than screen typical
Active means: 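a knock-down is a hit when classed RV1 or RV2 for lowered viability, or CA1 or CA2 for caspase activation; those lethal without drug were dropped; hits were retested singly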
Shown is an unselected part of about 18,000 reagents. 450 of all reagents (2.5%) were called active. 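Single biological run; no consistent viability z cut-off exists, so the class columns, not z-scores, define the calls.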 Entries without a mark were called inactive. No sequences are given here.

ST6GAL1 — viability hit class = no change; caspase hit class = no change; viability robust z-score = -1.31; caspase robust z-score = 3.68
OR6Y1 — viability hit class = no change; caspase hit class = no change; viability robust z-score = -0.93; caspase robust z-score = -0.74
RIBC1 — viability hit class = no change; caspase hit class = no change; viability robust z-score = 1.06; caspase robust z-score = -0.16
SHISA2 — viability hit class = no change; caspase hit class = no change; viability robust z-score = -0.92; caspase robust z-score = 2.97
PLRG1 — viability hit class = no change; caspase hit class = no change; viability robust z-score = -1.79; caspase robust z-score = 0.32
KCNJ2 — viability hit class = no change; caspase hit class = no change; viability robust z-score = -1.47; caspase robust z-score = 0.12
MEAK7 — viability hit class = no change; caspase hit class = no change; viability robust z-score = 1.39; caspase robust z-score = 0.92
MALL — viability hit class = no change; caspase hit class = no change; viability robust z-score = 1.19; caspase robust z-score = 1.06
C2orf76 — viability hit class = no change; caspase hit class = no change; viability robust z-score = -1.74; caspase robust z-score = 0.4
TMEM196 — viability hit class = no change; caspase hit class = no change; viability robust z-score = 0.64; caspase robust z-score = -0.34
IFNE — viability hit class = no change; caspase hit class = no change; viability robust z-score = -3.48; caspase robust z-score = -0.2
DRD2 — viability hit class = no change; caspase hit class = no change; viability robust z-score = -2.24; caspase robust z-score = -0.75
CYP4F8 — viability hit class = no change; caspase hit class = no change; viability robust z-score = 0.69; caspase robust z-score = 0.36
PPP1R7 — viability hit class = no change; caspase hit class = no change; viability robust z-score = 0; caspase robust z-score = 0.9

Entries listed so far whose target name starts with S or s:
ST6GAL1 — viability hit class = no change; caspase hit class = no change; viability robust z-score = -1.31; caspase robust z-score = 3.68
SHISA2 — viability hit class = no change; caspase hit class = no change; viability robust z-score = -0.92; caspase robust z-score = 2.97
